This is one part of the list.
Columns and labels:
Assay in all cases: log2 fold change, soluble protein after heating vs DMSO (PISA); higher = thermal stabilisation; K562 lysate, 10 uM; active = over 0.2 and 3.5 SD of the protein, either way, in both replicates (recomputed)
[1] = compound: C1=CC=C(C=C1)[C@H](COC2=CC3=C(C=C2)NC(=O)N3)NC(=O)C4=CC=CN(C4=O)CC5=CC(=C(C=C5)F)F
Outline: (§1)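 Quantification was by TMTpro 16plex LC-MS/MS with equalised channel sums, applied to the supernatant after 21,000xg for 90 min. Samples were crude K562 extract at 1 mg/mL protein in PBS pH 7.4 with 1 mM MgCl2, treated with 10 μM compound for 30 min, heated for 3 min across 48°C-58°C, pooled and brought to 0.5% NP-40 at 4°C. Values are log-two fold changes in thermal stability relative to solvent controls, from duplicates.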

Amino acid sequences for entries named in this document (tags omitted). A change or cut given only in a name is not applied to a line headed by its entry.
UniProt P26572: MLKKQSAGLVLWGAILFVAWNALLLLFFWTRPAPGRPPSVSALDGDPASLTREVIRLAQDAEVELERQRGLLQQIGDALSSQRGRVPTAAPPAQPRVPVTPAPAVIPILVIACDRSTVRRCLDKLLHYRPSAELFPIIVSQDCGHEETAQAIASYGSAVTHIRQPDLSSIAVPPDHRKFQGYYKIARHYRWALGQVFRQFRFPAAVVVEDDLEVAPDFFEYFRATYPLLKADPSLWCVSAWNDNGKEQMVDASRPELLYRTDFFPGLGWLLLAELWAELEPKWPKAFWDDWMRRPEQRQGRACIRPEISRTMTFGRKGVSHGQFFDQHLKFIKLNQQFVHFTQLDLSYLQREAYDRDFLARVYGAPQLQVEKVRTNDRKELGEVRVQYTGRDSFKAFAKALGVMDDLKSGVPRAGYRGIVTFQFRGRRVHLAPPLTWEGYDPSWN
UniProt Q9BVC4, whole entry, looked up: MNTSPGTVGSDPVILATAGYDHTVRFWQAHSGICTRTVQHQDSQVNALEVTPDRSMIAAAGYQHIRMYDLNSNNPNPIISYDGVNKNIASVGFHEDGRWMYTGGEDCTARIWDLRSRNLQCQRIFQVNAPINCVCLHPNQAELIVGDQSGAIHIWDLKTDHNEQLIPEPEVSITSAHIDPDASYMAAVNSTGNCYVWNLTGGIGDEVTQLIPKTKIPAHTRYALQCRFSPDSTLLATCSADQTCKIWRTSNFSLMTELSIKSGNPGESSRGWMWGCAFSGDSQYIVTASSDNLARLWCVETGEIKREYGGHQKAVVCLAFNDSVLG
UniProt P58340: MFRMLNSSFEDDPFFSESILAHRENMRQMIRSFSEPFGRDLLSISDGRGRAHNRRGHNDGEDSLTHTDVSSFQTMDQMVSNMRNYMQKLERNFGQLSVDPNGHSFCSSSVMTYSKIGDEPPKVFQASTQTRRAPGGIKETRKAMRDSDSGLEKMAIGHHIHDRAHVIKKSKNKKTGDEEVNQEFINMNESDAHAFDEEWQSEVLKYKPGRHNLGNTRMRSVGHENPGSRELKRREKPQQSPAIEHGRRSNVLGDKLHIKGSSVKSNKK
UniProt O96033: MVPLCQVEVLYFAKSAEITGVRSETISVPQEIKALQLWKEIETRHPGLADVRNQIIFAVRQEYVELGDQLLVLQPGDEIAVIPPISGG
UniProt Q8NDA8: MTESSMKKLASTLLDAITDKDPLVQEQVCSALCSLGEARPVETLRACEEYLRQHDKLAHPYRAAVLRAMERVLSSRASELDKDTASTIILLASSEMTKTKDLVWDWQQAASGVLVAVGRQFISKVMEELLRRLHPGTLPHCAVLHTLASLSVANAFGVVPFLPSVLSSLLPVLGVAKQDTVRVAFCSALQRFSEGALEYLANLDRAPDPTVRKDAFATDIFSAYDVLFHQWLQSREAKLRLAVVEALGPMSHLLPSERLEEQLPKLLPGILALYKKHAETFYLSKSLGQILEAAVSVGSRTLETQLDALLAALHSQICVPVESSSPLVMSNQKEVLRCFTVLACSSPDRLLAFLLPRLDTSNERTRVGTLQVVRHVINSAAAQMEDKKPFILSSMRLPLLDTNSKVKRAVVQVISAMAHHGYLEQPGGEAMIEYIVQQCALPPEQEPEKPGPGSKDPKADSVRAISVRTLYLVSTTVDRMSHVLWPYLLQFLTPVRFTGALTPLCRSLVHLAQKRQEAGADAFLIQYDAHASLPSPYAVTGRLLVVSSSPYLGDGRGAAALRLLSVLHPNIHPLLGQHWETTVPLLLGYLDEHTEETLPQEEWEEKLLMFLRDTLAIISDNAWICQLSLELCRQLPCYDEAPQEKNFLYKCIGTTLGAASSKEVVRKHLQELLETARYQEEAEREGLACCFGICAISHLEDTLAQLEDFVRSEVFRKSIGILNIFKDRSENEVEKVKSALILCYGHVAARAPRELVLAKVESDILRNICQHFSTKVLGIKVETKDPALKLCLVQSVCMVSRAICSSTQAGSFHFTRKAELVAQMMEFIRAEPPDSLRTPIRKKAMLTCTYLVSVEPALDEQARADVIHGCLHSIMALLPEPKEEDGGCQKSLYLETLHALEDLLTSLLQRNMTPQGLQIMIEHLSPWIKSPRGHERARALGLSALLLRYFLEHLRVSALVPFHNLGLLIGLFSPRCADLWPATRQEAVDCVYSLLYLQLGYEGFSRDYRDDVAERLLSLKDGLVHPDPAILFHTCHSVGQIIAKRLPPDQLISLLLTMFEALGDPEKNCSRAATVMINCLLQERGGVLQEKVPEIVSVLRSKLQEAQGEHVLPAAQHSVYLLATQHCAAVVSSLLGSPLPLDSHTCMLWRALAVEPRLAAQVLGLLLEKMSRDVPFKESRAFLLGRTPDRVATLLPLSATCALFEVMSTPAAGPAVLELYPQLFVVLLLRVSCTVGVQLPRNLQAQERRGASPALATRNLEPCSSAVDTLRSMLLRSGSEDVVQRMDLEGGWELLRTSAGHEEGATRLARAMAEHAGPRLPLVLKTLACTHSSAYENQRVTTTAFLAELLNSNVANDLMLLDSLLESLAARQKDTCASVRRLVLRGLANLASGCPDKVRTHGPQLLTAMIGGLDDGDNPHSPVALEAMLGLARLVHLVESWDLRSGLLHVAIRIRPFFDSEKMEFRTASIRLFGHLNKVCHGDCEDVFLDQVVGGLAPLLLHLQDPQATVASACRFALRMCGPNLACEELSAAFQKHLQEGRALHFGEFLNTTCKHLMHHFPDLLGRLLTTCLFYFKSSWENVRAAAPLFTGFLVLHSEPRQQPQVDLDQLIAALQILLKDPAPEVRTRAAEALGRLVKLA
UniProt Q9NP71: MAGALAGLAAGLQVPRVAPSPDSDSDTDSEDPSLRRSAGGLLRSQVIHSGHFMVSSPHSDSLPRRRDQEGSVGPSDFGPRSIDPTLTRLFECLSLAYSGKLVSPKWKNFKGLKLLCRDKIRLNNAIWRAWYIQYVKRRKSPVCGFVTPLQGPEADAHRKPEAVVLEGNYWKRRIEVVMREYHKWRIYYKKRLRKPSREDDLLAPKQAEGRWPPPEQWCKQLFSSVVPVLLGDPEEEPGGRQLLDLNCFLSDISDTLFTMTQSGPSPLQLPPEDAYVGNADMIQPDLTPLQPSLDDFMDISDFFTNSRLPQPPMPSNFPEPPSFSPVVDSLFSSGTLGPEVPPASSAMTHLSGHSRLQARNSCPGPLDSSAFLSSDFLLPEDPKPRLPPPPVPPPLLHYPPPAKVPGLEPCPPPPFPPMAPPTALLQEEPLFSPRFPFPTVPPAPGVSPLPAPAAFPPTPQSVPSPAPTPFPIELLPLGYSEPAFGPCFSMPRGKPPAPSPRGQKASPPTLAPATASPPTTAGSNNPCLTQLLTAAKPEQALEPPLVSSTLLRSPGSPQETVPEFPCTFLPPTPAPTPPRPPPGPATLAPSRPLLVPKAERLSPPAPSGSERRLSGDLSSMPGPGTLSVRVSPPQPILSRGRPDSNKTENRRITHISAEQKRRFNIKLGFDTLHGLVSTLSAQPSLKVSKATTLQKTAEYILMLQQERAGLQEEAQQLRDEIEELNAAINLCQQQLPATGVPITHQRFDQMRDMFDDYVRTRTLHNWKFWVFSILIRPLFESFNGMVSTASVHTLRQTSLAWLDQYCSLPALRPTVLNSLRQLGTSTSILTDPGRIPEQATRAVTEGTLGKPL
UniProt Q29983, whole entry, looked up: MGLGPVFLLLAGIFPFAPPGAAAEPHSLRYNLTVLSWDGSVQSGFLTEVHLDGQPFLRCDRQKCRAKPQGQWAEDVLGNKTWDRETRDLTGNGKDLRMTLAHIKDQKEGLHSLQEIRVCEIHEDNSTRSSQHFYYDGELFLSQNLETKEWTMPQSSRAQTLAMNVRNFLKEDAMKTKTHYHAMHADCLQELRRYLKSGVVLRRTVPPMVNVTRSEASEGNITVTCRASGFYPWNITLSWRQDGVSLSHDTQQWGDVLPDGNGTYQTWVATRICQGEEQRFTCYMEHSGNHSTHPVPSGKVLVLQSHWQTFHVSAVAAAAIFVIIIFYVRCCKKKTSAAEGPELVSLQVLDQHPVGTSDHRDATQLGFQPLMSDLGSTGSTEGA
UniProt Q9UBG0: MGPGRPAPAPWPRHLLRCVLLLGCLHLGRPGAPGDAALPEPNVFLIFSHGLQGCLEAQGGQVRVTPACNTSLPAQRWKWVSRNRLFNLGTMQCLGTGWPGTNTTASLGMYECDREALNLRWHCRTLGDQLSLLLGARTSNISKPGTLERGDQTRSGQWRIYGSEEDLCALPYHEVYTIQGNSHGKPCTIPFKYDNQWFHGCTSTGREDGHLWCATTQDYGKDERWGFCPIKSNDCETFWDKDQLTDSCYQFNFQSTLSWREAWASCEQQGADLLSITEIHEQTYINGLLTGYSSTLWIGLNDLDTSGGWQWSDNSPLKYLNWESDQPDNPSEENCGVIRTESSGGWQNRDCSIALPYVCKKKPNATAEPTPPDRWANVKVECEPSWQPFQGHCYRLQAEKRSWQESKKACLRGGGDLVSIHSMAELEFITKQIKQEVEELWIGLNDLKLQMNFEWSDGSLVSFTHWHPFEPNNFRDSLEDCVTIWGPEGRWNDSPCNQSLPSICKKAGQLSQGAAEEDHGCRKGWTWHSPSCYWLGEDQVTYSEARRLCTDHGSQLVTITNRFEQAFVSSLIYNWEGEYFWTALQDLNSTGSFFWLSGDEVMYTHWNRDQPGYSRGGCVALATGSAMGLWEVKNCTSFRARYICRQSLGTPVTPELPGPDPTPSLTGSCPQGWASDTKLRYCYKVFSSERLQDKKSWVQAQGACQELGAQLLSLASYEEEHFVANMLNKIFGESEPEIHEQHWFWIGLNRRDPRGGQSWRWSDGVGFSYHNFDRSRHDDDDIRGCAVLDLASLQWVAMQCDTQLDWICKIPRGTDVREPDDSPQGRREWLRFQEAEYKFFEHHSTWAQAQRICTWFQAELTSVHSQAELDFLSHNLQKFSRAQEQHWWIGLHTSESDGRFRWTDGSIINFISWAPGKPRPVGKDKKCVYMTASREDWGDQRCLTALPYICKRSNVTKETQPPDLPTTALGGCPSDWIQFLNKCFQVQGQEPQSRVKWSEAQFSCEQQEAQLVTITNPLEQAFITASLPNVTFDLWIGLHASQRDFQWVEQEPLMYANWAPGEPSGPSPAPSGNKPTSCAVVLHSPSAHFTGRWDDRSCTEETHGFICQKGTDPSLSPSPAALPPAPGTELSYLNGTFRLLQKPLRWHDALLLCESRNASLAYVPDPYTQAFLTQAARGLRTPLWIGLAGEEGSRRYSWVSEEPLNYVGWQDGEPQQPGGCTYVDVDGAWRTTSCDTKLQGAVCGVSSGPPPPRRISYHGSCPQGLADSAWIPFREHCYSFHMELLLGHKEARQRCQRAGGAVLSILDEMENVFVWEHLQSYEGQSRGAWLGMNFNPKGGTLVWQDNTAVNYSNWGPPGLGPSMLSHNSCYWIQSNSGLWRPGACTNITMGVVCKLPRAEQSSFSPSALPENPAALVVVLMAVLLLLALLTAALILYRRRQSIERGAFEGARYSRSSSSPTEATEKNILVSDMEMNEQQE
UniProt O95563: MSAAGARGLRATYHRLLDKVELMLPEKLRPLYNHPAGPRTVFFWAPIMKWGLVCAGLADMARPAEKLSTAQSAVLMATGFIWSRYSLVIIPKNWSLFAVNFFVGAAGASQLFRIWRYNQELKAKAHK
UniProt Q5TGZ0: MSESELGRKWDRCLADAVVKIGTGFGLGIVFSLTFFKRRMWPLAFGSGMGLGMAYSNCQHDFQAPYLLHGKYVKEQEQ
UniProt Q96FF7: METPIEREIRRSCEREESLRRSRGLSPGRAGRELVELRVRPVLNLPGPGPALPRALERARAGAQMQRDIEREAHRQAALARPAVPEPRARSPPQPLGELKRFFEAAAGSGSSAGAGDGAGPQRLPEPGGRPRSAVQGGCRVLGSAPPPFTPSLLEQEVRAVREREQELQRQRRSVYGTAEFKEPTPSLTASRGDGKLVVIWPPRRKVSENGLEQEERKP
UniProt Q9H8S9: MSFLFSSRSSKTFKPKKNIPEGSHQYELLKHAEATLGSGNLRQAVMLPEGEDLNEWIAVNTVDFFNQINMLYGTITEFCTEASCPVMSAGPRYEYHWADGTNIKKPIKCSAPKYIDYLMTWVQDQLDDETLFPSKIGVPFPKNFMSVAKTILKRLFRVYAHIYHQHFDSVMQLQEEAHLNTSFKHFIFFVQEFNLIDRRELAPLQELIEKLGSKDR
UniProt Q9HBH9: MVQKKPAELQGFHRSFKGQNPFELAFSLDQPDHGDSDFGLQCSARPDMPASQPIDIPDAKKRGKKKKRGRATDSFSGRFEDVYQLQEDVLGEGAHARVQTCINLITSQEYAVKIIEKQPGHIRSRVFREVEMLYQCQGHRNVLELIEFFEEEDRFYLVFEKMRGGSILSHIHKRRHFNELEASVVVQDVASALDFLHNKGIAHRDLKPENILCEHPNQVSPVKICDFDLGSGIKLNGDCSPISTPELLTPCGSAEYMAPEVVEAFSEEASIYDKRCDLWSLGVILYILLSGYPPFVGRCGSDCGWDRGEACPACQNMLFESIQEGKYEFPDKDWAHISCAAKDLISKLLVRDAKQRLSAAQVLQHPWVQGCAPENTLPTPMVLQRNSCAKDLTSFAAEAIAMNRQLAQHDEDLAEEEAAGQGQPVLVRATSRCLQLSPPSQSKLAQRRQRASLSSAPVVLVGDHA

[2] = compound: CC1=C(SC2=C1C(=N[C@H](C3=NN=C(N32)C)CC(=O)N)C4=CC=C(C=C4)Cl)C
Outline: as §1

[3] = compound: Cc1sc2c(c1C)C(c1ccc(Cl)cc1)=N[C@@H](CC(=O)OC(C)(C)C)c1nnc(C)n1-2
Outline: as §1

[4] = compound: c1ccc([C@@H]2C[C@H]2NC2CCNCC2)cc1
Outline: as §1

[5] = compound: CC1=C2C(=CC=C1)N=C(N(C2=O)C3=CC=CC=C3C)CN4C=NC5=C(N=CN=C54)N
Outline: as §1

Measured: log2 fold change

MMGT1 (UniProt Q8N4V1)
inactive: [1] 0.026 | [2] 0 | [3] -0.024 | [4] 0.003

MRPL19 (UniProt P49406)
inactive: [1] 0.017 | [2] -0.064 | [5] 0.011 | [3] -0.065 | [4] 0.019

MME (UniProt P08473)
inactive: [1] -0.152 | [2] 0.041 | [3] 0.232 | [4] -0.001

MGAT1 (UniProt P26572)
inactive: [5] -0.175 | [3] 0.044 | [4] 0.025

Fetched one by one from above (two):
MRPL19 (UniProt P49406)
inactive: [1] 0.017 | [2] -0.064 | [5] 0.011 | [3] -0.065 | [4] 0.019

MGAT1 (UniProt P26572)
inactive: [5] -0.175 | [3] 0.044 | [4] 0.025

Continued.

MIGA2 (UniProt Q7L4E1)
inactive: [3] -0.062

MPDZ (UniProt O75970)
inactive: [5] -0.024 | [3] -0.159 | [4] -0.09

MLKL (UniProt Q8NB16)
inactive: [1] 0.065 | [2] 0.097 | [4] -0.047

MGMT (UniProt P16455)
inactive: [3] 0.159

MRPL18 (UniProt Q9H0U6)
inactive: [5] 0.038 | [3] 0.001 | [4] -0.072

MRPL10 isoform 2 (UniProt Q7Z7H8)
inactive: [1] -0.053 | [2] 0.097 | [5] 0.023 | [3] -0.026 | [4] 0.016

MNT (UniProt Q99583)
inactive: [5] 0.006 | [3] 0.134 | [4] -0.145

MINDY4 (UniProt Q4G0A6)
inactive: [1] 0.14 | [2] -0.078 | [3] 0.01 | [4] -0.048

MLST8 (UniProt Q9BVC4)
inactive: [1] -0.038 | [2] 0.037 | [5] -0.051 | [3] 0.001 | [4] 0.011

MRPL22 (UniProt Q9NWU5)
inactive: [4] 0.019

MLF1 isoform 3 (UniProt P58340)
inactive: [5] 0.01 | [4] 0.006

MOCS2 (UniProt O96033)
inactive: [3] -0.091

MROH1 (UniProt Q8NDA8)
inactive: [1] -0.135 | [2] 0.08 | [3] 0.089 | [4] -0.084

MLXIPL (UniProt Q9NP71)
inactive: [4] -0.051

MICA (UniProt Q29983)
inactive: [1] -0.012 | [2] 0.053 | [4] -0.08

MPZL1 (UniProt O95297)
inactive: [1] 0.056 | [2] 0.006 | [5] -0.068 | [3] -0.042 | [4] 0.125

MRC2 (UniProt Q9UBG0)
inactive: [3] 0.209 | [4] -0.084

MPC2 (UniProt O95563)
inactive: [1] 0.015 | [2] -0.001 | [5] 0.007 | [3] -0.028 | [4] -0.121

MICOS10 (UniProt Q5TGZ0)
inactive: [1] -0.074 | [2] -0.152 | [5] 0 | [3] -0.049 | [4] 0.019

MOCS2 (UniProt O96007)
inactive: [1] -0.015 | [2] 0.021 | [5] -0.001 | [3] -0.016 | [4] 0.016

MISP3 (UniProt Q96FF7)
inactive: [3] -0.281

MOB1A (UniProt Q9H8S9)
inactive: [5] -0.113

MPHOSPH9 (UniProt Q99550)
inactive: [1] -0.028 | [2] 0.06 | [5] 0.15 | [4] -0.066

MKKS (UniProt Q9HB66)
inactive: [5] 0.014

MKNK2 (UniProt Q9HBH9)
inactive: [5] -0.035 | [3] 0.06

MRI1 (UniProt Q9BV20)
inactive: [1] 0.017 | [2] 0.017 | [5] 0 | [3] -0.03 | [4] -0.033

MIDEAS, A0A1C7CYX1
inactive: [3] 0.038

MLYCD (UniProt O95822)
inactive: [1] 0.002 | [2] 0.047 | [3] -0.045 | [4] 0.004
